Experimental findings from the supplement of paper PMC12819154, “High-throughput peptide-centric local stability assay extends protein–ligand identification to membrane proteins, tissues and bacteria” (Nature Structural & Molecular Biology, 2025) are described below.

The chains behind the UniProt entries cited, without tags or fusion partners. Where a name states a change or a piece, a line headed by the entry shows the natural chain unless it says otherwise.
UniProt Q8N680: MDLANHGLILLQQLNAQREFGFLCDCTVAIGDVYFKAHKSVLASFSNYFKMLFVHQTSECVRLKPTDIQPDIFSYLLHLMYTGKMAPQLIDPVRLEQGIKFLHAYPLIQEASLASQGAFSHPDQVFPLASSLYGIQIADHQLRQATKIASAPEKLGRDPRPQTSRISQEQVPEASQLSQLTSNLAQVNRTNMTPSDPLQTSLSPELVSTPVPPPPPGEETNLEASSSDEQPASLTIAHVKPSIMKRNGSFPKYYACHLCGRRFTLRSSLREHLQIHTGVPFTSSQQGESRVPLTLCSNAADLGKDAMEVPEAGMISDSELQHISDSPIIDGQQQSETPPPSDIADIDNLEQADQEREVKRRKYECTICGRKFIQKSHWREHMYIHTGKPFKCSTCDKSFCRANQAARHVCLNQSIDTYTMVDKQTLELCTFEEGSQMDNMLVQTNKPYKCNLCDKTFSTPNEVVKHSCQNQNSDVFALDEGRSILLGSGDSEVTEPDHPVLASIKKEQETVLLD
UniProt Q8N653: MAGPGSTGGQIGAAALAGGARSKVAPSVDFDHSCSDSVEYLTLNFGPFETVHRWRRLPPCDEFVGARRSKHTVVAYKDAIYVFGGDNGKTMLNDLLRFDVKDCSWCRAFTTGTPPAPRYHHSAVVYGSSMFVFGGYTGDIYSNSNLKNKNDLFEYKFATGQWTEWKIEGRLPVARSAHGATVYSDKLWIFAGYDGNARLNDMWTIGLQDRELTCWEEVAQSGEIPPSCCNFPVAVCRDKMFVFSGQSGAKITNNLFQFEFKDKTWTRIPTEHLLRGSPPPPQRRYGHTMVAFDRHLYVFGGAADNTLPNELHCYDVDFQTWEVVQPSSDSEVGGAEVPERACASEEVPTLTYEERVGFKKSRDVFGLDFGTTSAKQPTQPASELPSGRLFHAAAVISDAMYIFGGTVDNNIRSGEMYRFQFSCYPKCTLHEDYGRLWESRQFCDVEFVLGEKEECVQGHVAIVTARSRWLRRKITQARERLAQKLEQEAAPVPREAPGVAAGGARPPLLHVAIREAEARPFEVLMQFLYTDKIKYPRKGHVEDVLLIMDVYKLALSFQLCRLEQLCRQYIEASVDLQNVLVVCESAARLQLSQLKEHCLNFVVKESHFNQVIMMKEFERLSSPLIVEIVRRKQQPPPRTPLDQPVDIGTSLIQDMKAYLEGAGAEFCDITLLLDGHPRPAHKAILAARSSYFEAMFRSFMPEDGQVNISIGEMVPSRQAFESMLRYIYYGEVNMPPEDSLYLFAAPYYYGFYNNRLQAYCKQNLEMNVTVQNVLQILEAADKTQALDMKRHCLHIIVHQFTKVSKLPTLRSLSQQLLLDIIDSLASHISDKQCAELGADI
UniProt Q8N594: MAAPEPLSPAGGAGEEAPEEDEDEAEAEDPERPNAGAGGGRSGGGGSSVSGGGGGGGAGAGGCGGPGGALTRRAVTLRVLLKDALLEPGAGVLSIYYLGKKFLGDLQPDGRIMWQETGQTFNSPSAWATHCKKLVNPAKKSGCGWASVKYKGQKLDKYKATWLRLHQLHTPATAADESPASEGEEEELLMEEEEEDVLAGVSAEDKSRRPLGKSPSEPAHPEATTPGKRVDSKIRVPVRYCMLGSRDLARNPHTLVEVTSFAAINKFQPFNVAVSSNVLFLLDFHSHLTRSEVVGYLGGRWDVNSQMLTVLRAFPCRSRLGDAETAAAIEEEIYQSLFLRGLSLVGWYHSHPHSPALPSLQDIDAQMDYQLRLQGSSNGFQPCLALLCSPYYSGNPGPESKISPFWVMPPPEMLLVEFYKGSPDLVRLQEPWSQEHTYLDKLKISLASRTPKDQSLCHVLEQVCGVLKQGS
UniProt Q8NHG8: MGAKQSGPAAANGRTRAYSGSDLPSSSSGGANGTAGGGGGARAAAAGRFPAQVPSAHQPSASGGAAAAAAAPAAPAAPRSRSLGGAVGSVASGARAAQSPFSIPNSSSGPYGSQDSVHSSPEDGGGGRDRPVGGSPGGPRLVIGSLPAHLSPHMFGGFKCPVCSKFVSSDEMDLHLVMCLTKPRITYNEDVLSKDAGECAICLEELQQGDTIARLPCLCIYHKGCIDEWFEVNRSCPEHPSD
UniProt Q8NCM8: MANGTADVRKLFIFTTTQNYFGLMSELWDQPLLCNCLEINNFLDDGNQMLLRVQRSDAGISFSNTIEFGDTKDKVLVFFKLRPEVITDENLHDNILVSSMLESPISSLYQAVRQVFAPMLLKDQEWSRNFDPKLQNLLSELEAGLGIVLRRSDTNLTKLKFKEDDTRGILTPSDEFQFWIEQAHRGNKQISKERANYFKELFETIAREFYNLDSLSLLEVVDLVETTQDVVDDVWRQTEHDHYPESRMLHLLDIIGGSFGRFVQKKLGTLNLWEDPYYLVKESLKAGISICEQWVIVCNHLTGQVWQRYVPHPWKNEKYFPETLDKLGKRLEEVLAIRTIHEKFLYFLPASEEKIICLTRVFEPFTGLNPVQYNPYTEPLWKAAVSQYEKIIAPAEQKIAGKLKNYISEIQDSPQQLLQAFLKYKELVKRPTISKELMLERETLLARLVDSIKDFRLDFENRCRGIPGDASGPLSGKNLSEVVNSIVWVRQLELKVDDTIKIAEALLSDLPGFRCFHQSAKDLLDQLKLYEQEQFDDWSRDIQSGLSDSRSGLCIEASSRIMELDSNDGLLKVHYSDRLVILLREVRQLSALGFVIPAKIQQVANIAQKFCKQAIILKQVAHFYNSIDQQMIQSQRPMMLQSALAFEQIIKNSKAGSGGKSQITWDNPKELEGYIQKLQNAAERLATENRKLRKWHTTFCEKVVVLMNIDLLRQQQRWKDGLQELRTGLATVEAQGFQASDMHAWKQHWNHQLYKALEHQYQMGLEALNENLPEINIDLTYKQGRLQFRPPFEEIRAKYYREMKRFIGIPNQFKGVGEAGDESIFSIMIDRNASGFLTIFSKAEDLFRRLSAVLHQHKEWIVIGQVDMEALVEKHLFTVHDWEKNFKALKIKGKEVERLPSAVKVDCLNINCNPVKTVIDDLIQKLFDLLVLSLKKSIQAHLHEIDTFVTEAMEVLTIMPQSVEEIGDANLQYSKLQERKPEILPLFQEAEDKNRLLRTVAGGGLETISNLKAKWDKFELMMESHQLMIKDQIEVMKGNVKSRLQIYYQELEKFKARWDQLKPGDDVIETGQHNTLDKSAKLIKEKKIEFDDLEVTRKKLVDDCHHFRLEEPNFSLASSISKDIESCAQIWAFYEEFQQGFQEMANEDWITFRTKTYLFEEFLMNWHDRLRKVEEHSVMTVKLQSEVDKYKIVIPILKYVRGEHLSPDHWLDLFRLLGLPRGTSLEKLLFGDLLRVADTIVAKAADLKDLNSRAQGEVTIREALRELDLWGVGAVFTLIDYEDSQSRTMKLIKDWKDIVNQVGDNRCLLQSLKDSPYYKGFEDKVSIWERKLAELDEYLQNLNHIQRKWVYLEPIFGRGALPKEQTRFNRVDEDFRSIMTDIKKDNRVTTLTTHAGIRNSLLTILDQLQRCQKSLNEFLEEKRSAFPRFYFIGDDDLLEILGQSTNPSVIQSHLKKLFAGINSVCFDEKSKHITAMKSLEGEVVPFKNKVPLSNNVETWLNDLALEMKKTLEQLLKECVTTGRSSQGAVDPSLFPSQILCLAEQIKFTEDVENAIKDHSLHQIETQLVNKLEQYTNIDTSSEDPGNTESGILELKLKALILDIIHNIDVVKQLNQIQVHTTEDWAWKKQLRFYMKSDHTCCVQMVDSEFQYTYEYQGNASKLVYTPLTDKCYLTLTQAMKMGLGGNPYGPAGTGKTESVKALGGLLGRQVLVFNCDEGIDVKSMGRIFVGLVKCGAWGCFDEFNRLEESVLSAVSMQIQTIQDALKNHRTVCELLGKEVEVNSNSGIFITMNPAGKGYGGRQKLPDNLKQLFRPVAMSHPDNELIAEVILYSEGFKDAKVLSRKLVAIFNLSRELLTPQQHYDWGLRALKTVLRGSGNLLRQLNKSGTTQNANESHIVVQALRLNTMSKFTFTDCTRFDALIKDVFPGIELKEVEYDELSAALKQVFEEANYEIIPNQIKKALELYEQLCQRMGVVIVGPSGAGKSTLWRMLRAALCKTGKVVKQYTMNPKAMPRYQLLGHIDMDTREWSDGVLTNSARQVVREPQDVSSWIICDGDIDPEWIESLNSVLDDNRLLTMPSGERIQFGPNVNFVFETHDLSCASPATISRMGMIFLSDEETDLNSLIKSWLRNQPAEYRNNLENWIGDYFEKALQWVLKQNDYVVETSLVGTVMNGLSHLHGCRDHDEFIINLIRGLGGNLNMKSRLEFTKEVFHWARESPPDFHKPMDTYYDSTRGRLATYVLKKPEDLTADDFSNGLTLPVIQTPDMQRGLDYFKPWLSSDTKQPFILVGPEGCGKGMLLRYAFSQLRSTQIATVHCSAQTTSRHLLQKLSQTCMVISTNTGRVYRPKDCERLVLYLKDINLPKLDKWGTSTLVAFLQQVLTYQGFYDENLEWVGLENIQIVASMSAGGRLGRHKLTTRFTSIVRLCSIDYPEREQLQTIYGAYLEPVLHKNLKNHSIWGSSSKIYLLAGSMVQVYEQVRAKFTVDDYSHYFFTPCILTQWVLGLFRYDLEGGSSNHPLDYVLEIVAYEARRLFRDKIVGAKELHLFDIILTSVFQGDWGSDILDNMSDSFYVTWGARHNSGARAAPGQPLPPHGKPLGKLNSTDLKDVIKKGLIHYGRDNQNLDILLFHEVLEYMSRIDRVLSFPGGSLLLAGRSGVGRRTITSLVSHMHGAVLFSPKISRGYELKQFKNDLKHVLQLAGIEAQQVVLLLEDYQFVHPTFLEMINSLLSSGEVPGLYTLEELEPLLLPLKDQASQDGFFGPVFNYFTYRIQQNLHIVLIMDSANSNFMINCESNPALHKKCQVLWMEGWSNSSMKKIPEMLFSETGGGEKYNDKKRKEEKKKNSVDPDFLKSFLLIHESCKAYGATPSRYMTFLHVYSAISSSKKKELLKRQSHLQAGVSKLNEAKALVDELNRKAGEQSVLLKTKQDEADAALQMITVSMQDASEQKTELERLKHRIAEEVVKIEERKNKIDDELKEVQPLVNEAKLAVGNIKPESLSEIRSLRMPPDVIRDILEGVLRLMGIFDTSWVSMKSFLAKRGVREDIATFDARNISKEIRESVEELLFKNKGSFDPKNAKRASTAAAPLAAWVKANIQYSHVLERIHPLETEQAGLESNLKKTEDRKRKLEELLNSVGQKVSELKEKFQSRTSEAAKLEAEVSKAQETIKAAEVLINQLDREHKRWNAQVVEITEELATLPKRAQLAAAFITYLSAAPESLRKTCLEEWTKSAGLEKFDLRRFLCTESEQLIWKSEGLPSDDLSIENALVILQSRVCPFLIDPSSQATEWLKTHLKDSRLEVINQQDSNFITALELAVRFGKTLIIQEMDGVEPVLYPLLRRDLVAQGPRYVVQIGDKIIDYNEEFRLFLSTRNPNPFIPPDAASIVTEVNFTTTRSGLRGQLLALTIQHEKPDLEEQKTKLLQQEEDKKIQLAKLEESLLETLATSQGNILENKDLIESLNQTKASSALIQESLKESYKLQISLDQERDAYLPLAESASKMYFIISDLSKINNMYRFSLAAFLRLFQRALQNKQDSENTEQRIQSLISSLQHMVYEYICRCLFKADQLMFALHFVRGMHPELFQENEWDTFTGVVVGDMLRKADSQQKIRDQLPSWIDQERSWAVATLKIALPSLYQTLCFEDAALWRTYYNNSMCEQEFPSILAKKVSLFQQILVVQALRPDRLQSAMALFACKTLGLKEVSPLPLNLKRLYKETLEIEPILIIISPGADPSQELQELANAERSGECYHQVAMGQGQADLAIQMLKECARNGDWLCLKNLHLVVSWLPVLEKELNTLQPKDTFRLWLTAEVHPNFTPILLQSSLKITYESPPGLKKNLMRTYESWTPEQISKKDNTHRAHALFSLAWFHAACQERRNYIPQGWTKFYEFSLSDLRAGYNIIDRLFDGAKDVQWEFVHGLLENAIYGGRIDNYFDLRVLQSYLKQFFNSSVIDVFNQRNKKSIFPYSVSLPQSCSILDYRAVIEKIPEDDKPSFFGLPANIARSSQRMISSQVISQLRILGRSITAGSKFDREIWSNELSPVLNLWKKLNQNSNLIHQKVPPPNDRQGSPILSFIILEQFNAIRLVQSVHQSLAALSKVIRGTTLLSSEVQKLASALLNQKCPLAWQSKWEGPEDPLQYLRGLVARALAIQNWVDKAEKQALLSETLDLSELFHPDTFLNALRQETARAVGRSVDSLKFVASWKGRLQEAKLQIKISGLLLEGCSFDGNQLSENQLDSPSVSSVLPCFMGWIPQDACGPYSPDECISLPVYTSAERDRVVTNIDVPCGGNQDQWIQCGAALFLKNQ
UniProt Q8N9N8: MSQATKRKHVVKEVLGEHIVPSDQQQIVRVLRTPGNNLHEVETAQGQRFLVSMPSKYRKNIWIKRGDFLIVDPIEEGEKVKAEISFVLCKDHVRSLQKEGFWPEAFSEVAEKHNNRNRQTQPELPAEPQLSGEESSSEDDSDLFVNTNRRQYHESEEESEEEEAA

The other results are listed elsewhere or left out. Small differences around the control level are noise.

Compound in this test: Cc1nc(Nc2ncc(C(=O)Nc3c(C)cccc3Cl)s2)cc(N2CCN(CCO)CC2)n1 [dasatinib]
The experiment in a line: log2 fold change of tryptic peptide abundance, ligand vs vehicle (limited proteolysis) (log2 ratio); higher = more trypsin-susceptible (destabilized). As to conditions: ligand concentration: 5 uM; sample: K562 cleared lysate.
Consider “TTC30B (peptide sequence: SLVEQLPSR, peptide start residue: 134) (UniProt Q8N4P2)”, for which the log2 fold change was 0.0286.

Take “TSEN2 (peptide sequence: AFTVVQPTFR, peptide start residue: 331) (UniProt Q8NCE0)”: the log2 fold change was -0.312.

For the target “ATPAF2 (peptide sequence: KLKTPQAK, peptide start residue: 70) (UniProt Q8N5M1)”, the log2 fold change amounted to 0.153.

As for “CEP120 (peptide sequence: VAEYTILEGK, peptide start residue: 702) (UniProt Q8N960)”, the log2 fold change came to 0.264.

For the target “SRBD1 (peptide sequence: ILYNSLNDSFKR, peptide start residue: 484) (UniProt Q8N5C6)”, the log2 fold change is -0.185.

On to “MINDY2 (peptide sequence: DSGLESPAAAEAPLRGQYK, peptide start residue: 89) (UniProt Q8NBR6)”, for which the log2 fold change was 0.0248.

Take “ZBTB2 (peptide sequence: SILLGSGDSEVTEPDHPVLASIKK, peptide start residue: 483) (UniProt Q8N680)”: the log2 fold change came to 0.0814.

As to “UniProt Q8N6I1 (peptide sequence: HGNGGLAALPYLR, peptide start residue: 129)”, the log2 fold change is -0.164.

As for “ABHD11 (peptide sequence: TAMLLALQRPELVER, peptide start residue: 146) (UniProt Q8NFV4)”, the log2 fold change came to 0.189.

In the case of “C12orf45 (peptide sequence: GKIEVLDSPASK, peptide start residue: 171) (UniProt Q8N5I9)”, the log2 fold change was -0.141.

On to “LZTR1 (peptide sequence: LEQEAAPVPR, peptide start residue: 485) (UniProt Q8N653)”, for which the log2 fold change was -0.444.

“TMEM102 (peptide sequence: AAVESPVPKPSEAR, peptide start residue: 242) (UniProt Q8N9M5)”: the log2 fold change turned out to be 0.0295.

For “UniProt Q8N594 (peptide sequence: SPSEPAHPEATTPGKR, peptide start residue: 214)”, the log2 fold change amounted to 0.968.

As to “OXR1 (peptide sequence: TDLNNLEMAIK, peptide start residue: 413) (UniProt Q8N573)”, the log2 fold change was -0.611.

As to “FBH1 (peptide sequence: TVENIVLPR, peptide start residue: 1026) (UniProt Q8NFZ0)”, the log2 fold change turned out to be 0.188.

On to “UniProt Q8N3A8 (peptide sequence: KNYDRVMK, peptide start residue: 600)”, for which the log2 fold change stood at 0.398.

Take “C17orf53 (peptide sequence: LRPVSSRPQETVQAQSSR, peptide start residue: 42) (UniProt Q8N3J3)”: the log2 fold change is -0.161.

As to “UniProt Q8NHY6 (peptide sequence: VMLENYR, peptide start residue: 63)”, the log2 fold change was determined as 0.0595.

“ATL2 (peptide sequence: DLVEYFK, peptide start residue: 351) (UniProt Q8NHH9)”: the log2 fold change came out at 0.239.

On to “UniProt Q8N6Q8 (peptide sequence: LDVNGLALK, peptide start residue: 233)”, for which the log2 fold change worked out at 0.346.

In the case of “ZNRF2 (peptide sequence: SLGGAVGSVASGAR, peptide start residue: 82) (UniProt Q8NHG8)”, the log2 fold change is -0.0711.

For “CTCFL (peptide sequence: YQCPHCATIIAR, peptide start residue: 428) (UniProt Q8NI51)”, the log2 fold change was -0.134.

On to “ZCCHC7 (peptide sequence: QCDRCHMLGHYTDACTEIWR, peptide start residue: 305) (UniProt Q8N3Z6)”, for which the log2 fold change was -0.492.

For the target “CBR4 (peptide sequence: DLKEEHLK, peptide start residue: 188) (UniProt Q8N4T8)”, the log2 fold change was 0.404.

With “PPFIBP2 (peptide sequence: LSGATPNGEAAK, peptide start residue: 429) (UniProt Q8ND30)”, the log2 fold change stood at 0.0936.

As for “ZNF579 (peptide sequence: FWCPECGK, peptide start residue: 384) (UniProt Q8NAF0)”, the log2 fold change amounted to 0.201.

On to “DYNC2H1 (peptide sequence: KAGEQSVLLK, peptide start residue: 2917) (UniProt Q8NCM8)”, for which the log2 fold change is -0.654.

As to “EIF1AD (peptide sequence: AEISFVLCK, peptide start residue: 82) (UniProt Q8N9N8)”, the log2 fold change is 0.14.
